Results are given in words; binding and its absence hold for the method and conditions named. In cells and extracts the contact can be indirect. A yes stands for co-enrichment or nearness to the bait. Other partners may have been found.
Target: Cullin-1 (CUL1) (UniProt Q13616)
Test: affinity purification with mass spectrometry; immunoprecipitation with CUL1 antibody from control and CAND1 knock-down cells, relative quantitative MS of F-box proteins (Figure 4G, Table S2)

Sequences of proteins named here, by UniProt entry; tags and fusion partners are left off.
UniProt Q13616: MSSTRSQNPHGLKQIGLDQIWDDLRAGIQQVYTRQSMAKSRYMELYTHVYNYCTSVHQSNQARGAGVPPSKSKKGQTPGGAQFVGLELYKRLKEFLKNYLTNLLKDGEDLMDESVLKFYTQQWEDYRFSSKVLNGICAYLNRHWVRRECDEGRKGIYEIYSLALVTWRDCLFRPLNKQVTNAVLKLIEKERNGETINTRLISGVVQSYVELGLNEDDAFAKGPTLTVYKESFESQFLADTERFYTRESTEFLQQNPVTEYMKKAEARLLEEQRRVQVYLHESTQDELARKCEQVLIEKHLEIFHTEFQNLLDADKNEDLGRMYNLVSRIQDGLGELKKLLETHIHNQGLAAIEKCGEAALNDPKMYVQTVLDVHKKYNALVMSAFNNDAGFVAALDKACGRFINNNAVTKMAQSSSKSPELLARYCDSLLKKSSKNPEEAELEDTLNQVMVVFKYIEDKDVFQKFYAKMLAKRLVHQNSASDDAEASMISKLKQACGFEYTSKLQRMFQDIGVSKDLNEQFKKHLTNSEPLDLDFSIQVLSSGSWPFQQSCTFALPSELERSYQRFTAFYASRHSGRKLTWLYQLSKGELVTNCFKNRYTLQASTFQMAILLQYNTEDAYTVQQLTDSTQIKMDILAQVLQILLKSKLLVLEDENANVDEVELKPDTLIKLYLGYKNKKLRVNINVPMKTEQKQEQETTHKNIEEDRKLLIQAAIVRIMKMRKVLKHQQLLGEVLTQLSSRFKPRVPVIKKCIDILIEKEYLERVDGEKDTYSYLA

binding: binds
B1: F-box protein 11 (FBXO11) (protein, UniProt Q86XK2 1-927)
chain: MNSVRAANRRPRRVSRPRPVQQQQQQPPQQPPPQPPQQQPPQQQPPPPPQQQQQQQPPPPPPPPPPLPQERNNVGERDDDVPADMVAEESGPGAQNSPYQLRRKTLLPKRTACPTKNSMEGASTSTTENFGHRAKRARVSGKSQDLSAAPAEQYLQEKLPDEVVLKIFSYLLEQDLCRAACVCKRFSELANDPILWKRLYMEVFEYTRPMMHPEPGKFYQINPEEYEHPNPWKESFQQLYKGAHVKPGFAEHFYSNPARYKGRENMLYYDTIEDALGGVQEAHFDGLIFVHSGIYTDEWIYIESPITMIGAAPGKVADKVIIENTRDSTFVFMEGSEDAYVGYMTIRFNPDDKSAQHHNAHHCLEITVNCSPIIDHCIIRSTCTVGSAVCVSGQGACPTIKHCNISDCENVGLYITDHAQGIYEDNEISNNALAGIWVKNHGNPIIRRNHIHHGRDVGVFTFDHGMGYFESCNIHRNRIAGFEVKAYANPTVVRCEIHHGQTGGIYVHEKGRGQFIENKIYANNFAGVWITSNSDPTIRGNSIFNGNQGGVYIFGDGRGLIEGNDIYGNALAGIQIRTNSCPIVRHNKIHDGQHGGIYVHEKGQGVIEENEVYSNTLAGVWVTTGSTPVLRRNRIHSGKQVGVYFYDNGHGVLEDNDIYNHMYSGVQIRTGSNPKIRRNKIWGGQNGGILVYNSGLGCIEDNEIFDNAMAGVWIKTDSNPTLRRNKIHDGRDGGICIFNGGRGLLEENDIFRNAQAGVLISTNSHPILRKNRIFDGFAAGIEITNHATATLEGNQIFNNRFGGLFLASGVNVTMKDNKIMNNQDAIEKAVSRGQCLYKISSYTSYPMHDFYRCHTCNTTDRNAICVNCIKKCHQGHDVEFIRHDRFFCDCGAGTLSNPCTLAGEPTHDTDTLYDSAPPIESNTLQHN
